PubChem BioAssay AID602196, INSERM – 2012

- Assay: 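Modifiers of cisplatin sensitivity in A549 cells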
- System: human A549 lung cancer cells
- Knock-down reagent: siRNA pair against human genes
- Time to read-out: 48 h transfection before cisplatin; time from cisplatin to read-out not stated
- Treatment: cisplatin at a dose killing half of control-siRNA cells; exact dose and duration not given
- Measurement: 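Cisplatin cell death as a shift from the 50% death seen with control siRNA; siRNAs toxic or growth-blocking alone scored 0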
- Reading the numbers: two-siRNA summed score (-2 to +2): higher = both siRNAs protect from cisplatin killing; -2 means both sensitise; mean protection from cisplatin (shift in death) and protection from cisplatin (shift in death), siRNA C and protection from cisplatin (shift in death), siRNA D: higher = protection from cisplatin killing
- Hit rule: 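Each siRNA scores 0 if harmful alone by LDH or WST-1, otherwise +1 if it reduces and -1 if it increases cisplatin killing; a gene is active when both siRNAs agree (sum +2 or -2)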
- Calls: active = both siRNAs shift cisplatin killing the same way; inactive = no consistent shift, or siRNA harmful alone
Here is a random part of about 23,000 reagents tested. 455 of them (2%) were called active. 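Active includes both protection and sensitisation; some change values fall well beyond the stated -50 to +50 range.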 No sequences are given here. Not given: the amount of reagent.

Target gene	two-siRNA summed score (-2 to +2)	mean protection from cisplatin (shift in death) (%)	protection from cisplatin (shift in death), siRNA C (%)	protection from cisplatin (shift in death), siRNA D (%)	activity call
PRRC2B (proline rich coiled-coil 2B)	0	7.9	7	8.8	inactive
CCDC93 (CCC complex scaffolding subunit CCDC93)	0	10.6	12.5	8.6	inactive
CLVS2 (clavesin 2)	0	-6.1	-16.2	4	inactive
ALG5 (ALG5 dolichyl-phosphate beta-glucosyltransferase)	0	-5.1	-13.8	3.6	inactive
BCR (BCR activator of RhoGEF and GTPase)	-1	-1.2	16.4	-18.8	inactive
DDAH1 (dimethylarginine dimethylaminohydrolase 1)	0	5.7	5.1	6.3	inactive
HDDC2 (HD domain containing 2)	0	-1	-3.5	1.4	inactive
JAG2 (jagged canonical Notch ligand 2)	0	-1.9	0.9	-4.6	inactive
TFDP1 (transcription factor Dp-1)	-1	-9	-23.6	5.6	inactive
VPS37A (VPS37A subunit of ESCRT-I)	1	8.1	13.6	2.5	inactive
LOC389452	0	2.9	3.9	1.9	inactive
LOC401234	0	6.3	8.4	4.1	inactive
XPO1 (exportin 1)	0	-11.4	-22.4	-0.5	inactive
ATF7IP2 (activating transcription factor 7 interacting protein 2)	0	-6.6	3.7	-16.8	inactive
ACYP1 (acylphosphatase 1)	0	8.5	13.9	3.1	inactive
PSME3 (proteasome activator subunit 3)	1	8.4	14.4	2.4	inactive
PPP2R2C (protein phosphatase 2 regulatory subunit Bgamma)	0	9	1.1	16.9	inactive
TOMM20 (translocase of outer mitochondrial membrane 20)	0	1.1	8.5	-6.4	inactive
SPIN2A (spindlin family member 2A)	0	-7.1	-13.8	-0.3	inactive
LOC388853	0	0	-5.2	5.2	inactive
P2RX6 (purinergic receptor P2X 6)	0	-0.9	-0.3	-1.4	inactive
LOC441778	0	21.8	9.7	33.9	inactive
TGFB1 (transforming growth factor beta 1)	0	-4.2	-9.5	1.1	inactive
LOC440578	0	10.1	4.9	15.3	inactive
LSM14B (LSM family member 14B)	0	4.5	9	0	inactive
TRIM65 (tripartite motif containing 65)	1	15.2	8.4	22.1	inactive
C9orf152 (chromosome 9 open reading frame 152)	0	3.5	3.6	3.5	inactive
SMIM43 (small integral membrane protein 43)	0	0	7.4	-7.5	inactive
LOC390107	0	29.9	23.8	36.1	inactive
ZNF503 (zinc finger protein 503)	0	3.1	2.3	3.9	inactive
LOC401103	0	6.1	11	1.1	inactive
EMID1 (EMI domain containing 1)	0	0.4	-17.8	18.6	inactive
MFAP3L (microfibril associated protein 3 like)	0	8	9.3	6.6	inactive
LINC00858 (long independently transcribed non-coding RNA 858)	0	11.3	13.1	9.4	inactive
WSCD1 (WSC domain sialate O sulfotransferase 1)	0	14.7	20.1	9.2	inactive
LOC441019	0	1.4	-4.6	7.5	inactive
POP1 (POP1 ribonuclease P/MRP subunit)	0	17.9	8	27.7	inactive
MRPL50 (mitochondrial ribosomal protein L50)	0	9.7	3.7	15.7	inactive
ANXA5 (annexin A5)	0	2	-8.2	12.1	inactive
GPR62 (G protein-coupled receptor 62)	0	5.7	-21.6	33	inactive
CABCOCO1 (ciliary associated calcium binding coiled-coil 1)	0	4.7	3	6.4	inactive
UGT1A7 (UDP glucuronosyltransferase family 1 member A7)	0	11.5	6.6	16.4	inactive
MXRA8 (matrix remodeling associated 8)	0	-5.7	-2	-9.3	inactive
GPHRB (golgi pH regulator B)	2	16.2	11.5	21	active
LOC387983	0	10.5	12.9	8.1	inactive
IQCF3 (IQ motif containing F3)	1	16	8.9	23	inactive
LOC442669	2	19.6	14.1	25.1	active
MINDY2 (MINDY lysine 48 deubiquitinase 2)	0	-5.1	-15.4	5.2	inactive
GPX7 (glutathione peroxidase 7)	0	19.1	11.5	26.7	inactive
GALR1 (galanin receptor 1)	-1	-6.6	-21.7	8.4	inactive
IFNGR2 (interferon gamma receptor 2)	0	-6.9	-17.2	3.5	inactive
RNF141 (ring finger protein 141)	0	10.5	24.1	-3.1	inactive
CCNL2 (cyclin L2)	0	2.3	-6.9	11.5	inactive
LOC441135	1	12.1	8.8	15.3	inactive
BASP1-AS1 (BASP1 antisense RNA 1)	0	5.5	4.3	6.7	inactive
S100A14 (S100 calcium binding protein A14)	0	5.5	8.5	2.5	inactive
TSLIG3A (tRNA splicing ligase complex subunit 3A)	0	8.3	6.3	10.3	inactive

Hits (from the list above):
Target gene	two-siRNA summed score (-2 to +2)	mean protection from cisplatin (shift in death) (%)	protection from cisplatin (shift in death), siRNA C (%)	protection from cisplatin (shift in death), siRNA D (%)	activity call
GPHRB (golgi pH regulator B)	2	16.2	11.5	21	active
LOC442669	2	19.6	14.1	25.1	active
